Laboratory results published in US20170002421A1, “METHODS AND ASSAYS FOR DETERMINING REDUCED BRCA1 PATHWAY FUNCTION IN A CANCER CELL” (THE GENERAL HOSPITAL CORPORATION, priority 2013, published 2017).
At least one compound was matched to its structure with a doubt left.

Test system: breast cancer cell line panel
Assay: Pharmacologic inhibition assay (Crystal Violet, mean percent viability)
Type: cell-based, human
Protocol: All cell lines were obtained and maintained as previously described^15. Independent pharmacologic inhibition assays were conducted in triplicate for each cell line. Cells were seeded at 20,000 per well in a 24-well plate. After 24 hours, cells were treated in triplicate with indicated concentrations of: DMSO, temozolomide (SIGMA ALDRICH™, T2577), or AZD-2281 (SELLECK CHEMICALS™, S1060). After five days of incubation, cells were fixed in 4% formaldehyde and stained with 1% Crystal Violet (SIGMA ALDRICH™, C0775) for ten minutes at room temperature. Cells were then washed to remove unincorporated dye and plates were inverted to dry overnight. Incorporated dye was extracted with 10% acetic acid and OD595 measurements were obtained within a linear range. Treated cells were normalized to the vehicle-treated control to obtain mean percent viability.

## Cn1nnc2c(C(N)=O)ncn2c1=O [temozolomide]
Either drug alone, seven of the tested cell lines with Garnett et al. expression data (FIG. 4B, top and middle panel)
  reduction in viability, single administration: did not demonstrate a significant reduction in viability
Temozolomide alone, 100 uM, five days incubation, 12-cell-line breast cancer panel (FIG. 4A, top panel)
  reduction in viability: does not demonstrate significant reduction in viability
